Results deposited as PubChem BioAssay AID1259254 (NCATS, 2017)
Shown is a random part of about 59,000 deposited reagents. About 1,550 of all reagents (2.6%) were called active. 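G2 share is only a proxy for re-replication; each gene was hit by three separate siRNAs, and active genes were retested.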 Raw values vary from plate to plate and are shown uncorrected. Unmarked entries are inactive. The numbers tell different reagents against one gene apart. The record does not give: the amount of reagent.

Purpose: 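Finding genes that stop cells copying their DNA twice in one cycle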 (primary screen)
Cells: human HCT116 colorectal cancer cells
Reagents: single siRNA against human genes
Duration: 3 days
Measured: 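Nuclei stained with Hoechst and imaged; cell-cycle phase assigned by DNA content; G2 share scaled per plate, non-targeting siRNA 0%, GMNN siRNA 100%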
Direction: G2 robust z-score and G2 cells, % of GMNN control: higher = more G2 cells, more excess DNA replication; raw share of cells in G2: higher = larger share of cells with G2 DNA content
Hit rule: 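Active siRNAs have a G2 robust z of 5 or more median absolute deviations over the median, which in these data means about 38% or higher of GMNN control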

Gene,reagent,G2 robust z-score,"G2 cells, % of GMNN control",raw share of cells in G2 (%)
CRIPAK (retired record),1,1.1,10.7,7.55
CRIPAK (retired record),2,1.23,11.6,7.54
CRIPAK (retired record),3,0.28,4.94,4.77
CD5,1,-0.8,-2.66,4.02
CD5,2,-0.424,-0.0154,4.09
CD5,3,1.83,15.8,10.6
BTBD2,1,0.471,6.28,6.69
BTBD2,2,-0.975,-3.89,4.72
BTBD2,3,-0.832,-2.88,3.13
POU4F1,1,-0.991,-4,1.87
POU4F1,2,-0.29,0.925,5.28
POU4F1,3,0.87,9.09,6.41
CACNG5,1,4,31.1,15.3
CACNG5,2,-0.532,-0.778,5.01
CACNG5,3,-0.927,-3.55,2.99
POLR2D,1,0.543,6.79,6.15
POLR2D,2,3.22,25.7,16.9
POLR2D,3,0.84,8.88,6.33
CD200R1,1,2.1,17.8,11.2
CD200R1,2,0.179,4.23,7.97
CD200R1,3,0.435,6.03,7.23
DNAJA3,1,-0.112,2.18,4.25
DNAJA3,2,0.806,8.64,9.83
DNAJA3,3,-0.106,2.22,4.27
AP3B1,1,1.78,15.5,8.67
AP3B1,2,-0.979,-3.92,4.24
AP3B1,3,0.265,4.83,5.36
TBX1,1,-0.692,-1.9,3.51
TBX1,2,0.037,3.23,5.91
TBX1,3,2.87,23.2,12.9

Quoted from the listing, 2 entries:
Gene,reagent,G2 robust z-score,"G2 cells, % of GMNN control",raw share of cells in G2 (%)
POU4F1,2,-0.29,0.925,5.28
POU4F1,3,0.87,9.09,6.41
